Tested on: proteins in oral lavage
Assay: Abundance of proteins in human oral lavage (SomaLogic), TABLE 1
Assay type: in vivo
Conditions: for Means (Original Scale) High bleeder BL: high bleeders (gingivitis); for Means (Original Scale) High bleeder BL / Means (Original Scale) Low bleeder BL: baseline; for Means (Original Scale) Low bleeder BL: low bleeders (healthy); for Fold Change High bleeder W4 vs High bleeder BL / Fold Change High bleeder BL vs Low bleeder BL: oral lavage; for Fold Change High bleeder W4 vs High bleeder BL: week 4 of treatment vs baseline; for Fold Change High bleeder BL vs Low bleeder BL: high vs low bleeders at baseline
[1] = abundance in oral lavage, high bleeders, week 4 of investigative products

| Substance | Means (Original Scale) High bleeder BL (abundance in oral lavage) | Means (Original Scale) High bleeder W4 [1] | Means (Original Scale) Low bleeder BL (abundance in oral lavage) | Fold Change High bleeder W4 vs High bleeder BL (high bleeders) | Fold Change High bleeder BL vs Low bleeder BL | Means (Original Scale) High bleeder W4 (in vivo, po) |
| --- | --- | --- | --- | --- | --- | --- |
| Plasma kallikrein | 46557 | 15193 | 4040 | 0.73 | 9.09 |  |
| Plasminogen activator inhibitor 1 | 100 | 67 | 39 | 0.72 | 2.40 |  |
| Platelet factor 4 | 405 | 200 | 131 | 0.61 | 2.33 |  |
| Platelet receptor Gi24 | 7220 | 4528 | 2622 | 0.62 | 2.74 |  |
| Plexin-B2 | 72614 | 47158 | 32750 | 0.61 | 2.28 |  |
| Proteasome activator complex subunit 3 | 180 | 96 | 84 | 0.64 | 1.85 |  |
| Proteasome subunit alpha type-2 | 3457 | 1924 | 1058 | 0.53 | 4.39 |  |
| Proteasome subunit alpha type-6 | 392 | 224 | 139 | 0.65 | 2.77 |  |
| Protein E7_HPV18 | 493 |  | 200 | 0.66 | 2.26 | 249 |
| Ribosomal protein S6 kinase alpha-5 | 27 | 18 | 12 | 0.73 | 2.12 |  |
| SUMO-conjugating enzyme UBC9 | 69920 | 44705 | 14235 | 0.68 | 6.93 |  |
| Serine/threonine-protein kinase 16 | 350 | 231 | 138 | 0.73 | 2.31 |  |
| Serum amyloid P-component | 83820 | 38594 | 17509 | 0.54 | 6.00 |  |
| Signal transducer and activator of transcription 3 | 5042 | 2798 | 554 | 0.60 | 9.28 |  |
| Small ubiquitin-related modifier 3 | 42271 | 24878 | 15775 | 0.63 | 3.03 |  |
| Somatostatin-28 | 171 |  | 48 | 0.65 | 3.00 | 96 |
| Stress-induced-phosphoprotein 1 | 16420 | 9806 | 4297 | 0.53 | 5.59 |  |
| Tenascin | 11450 | 4204 | 1484 | 0.59 | 6.06 |  |
| Thioredoxin domain-containing protein 12 | 33968 | 18352 | 7236 | 0.57 | 6.16 |  |
| Thrombospondin-4 | 1702 | 608 | 235 | 0.52 | 5.93 |  |
| Triosephosphate isomerase | 199036 | 137411 | 13987 | 0.63 | 15.87 |  |
| Trypsin-1 | 1882 | 1012 | 423 | 0.61 | 3.94 |  |
| Tyrosine-protein phosphatase non-receptor type substrate 1 | 5104 |  | 670 | 0.66 | 12.44 | 3229 |
